This experiment deals with T1, rabbit fructose-bisphosphate aldolase (rabbit (O. cuniculus)) (UniProt P00883).
T1 sequence: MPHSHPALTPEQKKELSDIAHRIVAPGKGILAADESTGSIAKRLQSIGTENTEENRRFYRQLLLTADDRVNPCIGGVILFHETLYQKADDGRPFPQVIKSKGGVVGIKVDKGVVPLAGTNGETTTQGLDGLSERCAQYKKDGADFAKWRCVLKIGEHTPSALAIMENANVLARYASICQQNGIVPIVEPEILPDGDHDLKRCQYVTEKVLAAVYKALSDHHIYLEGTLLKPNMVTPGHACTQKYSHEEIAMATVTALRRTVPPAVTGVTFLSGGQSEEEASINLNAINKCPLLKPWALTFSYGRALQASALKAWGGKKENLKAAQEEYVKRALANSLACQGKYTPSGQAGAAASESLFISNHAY
Briefly: far-Western, overlay or dot blot; rabbit glycolytic enzymes (3 µg per lane) run on SDS-PAGE and blotted on nitrocellulose; His-wBm0432 in solution (3 µg/ml by the methods, 2 µg/ml by the legend), 3 h, room temperature, overlay buffer 50 mM HEPES pH 7.3, 3 mM EGTA, 3 mM CaCl2, 3 mM MgCl2, 80 mM KCl, 0.1 mM DTT, 5% skim milk; detected with HRP anti-His antibody; both purified.

No constants are given. Whether binding was seen depends on the method and setting. Binding can be weak; no strength is given.

Regarding “recombinant His-tagged Wolbachia surface protein wBm0432”, the binding entry is listed as “binds”.

These data come from PMC3617236.
